Results on 1 sequence are retold here after PMC5996148.

Sequences of proteins named here, by UniProt entry; tags and fusion partners are left off. A change or cut given only in a name is not applied to a line headed by its entry.
UniProt Q9UHD2: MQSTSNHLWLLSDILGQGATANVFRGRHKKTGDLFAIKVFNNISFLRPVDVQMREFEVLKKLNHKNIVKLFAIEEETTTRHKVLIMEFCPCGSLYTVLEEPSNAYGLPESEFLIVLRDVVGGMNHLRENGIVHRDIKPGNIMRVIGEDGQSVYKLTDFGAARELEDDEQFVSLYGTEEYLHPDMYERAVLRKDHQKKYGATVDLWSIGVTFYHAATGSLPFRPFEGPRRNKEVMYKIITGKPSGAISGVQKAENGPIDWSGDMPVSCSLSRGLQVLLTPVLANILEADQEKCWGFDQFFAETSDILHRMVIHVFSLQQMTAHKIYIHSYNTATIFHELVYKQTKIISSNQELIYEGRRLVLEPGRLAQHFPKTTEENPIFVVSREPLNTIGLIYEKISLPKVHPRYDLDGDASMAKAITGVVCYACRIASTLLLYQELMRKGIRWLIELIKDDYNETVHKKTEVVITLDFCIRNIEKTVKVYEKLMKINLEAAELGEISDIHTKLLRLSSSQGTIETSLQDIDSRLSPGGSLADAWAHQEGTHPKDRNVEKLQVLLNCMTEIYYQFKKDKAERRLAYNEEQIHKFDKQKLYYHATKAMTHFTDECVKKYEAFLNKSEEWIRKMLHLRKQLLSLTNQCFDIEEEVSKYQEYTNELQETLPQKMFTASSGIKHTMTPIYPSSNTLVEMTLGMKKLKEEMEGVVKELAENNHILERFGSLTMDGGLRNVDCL

Test systems include TANK (human); TAP2 (human); TARP (human); TAS2R43 (human); TBC1D21 (human); TBC1D7 (human); TBC1D9B (human); TBCB (human); TBCD (human); TBL1X (human); TBL2 (human); TBXAS1 (human); TCEB2 (human); TCP11 (human); TCP11L1 (human); TCTA (human).
Assay in all cases: protein microarray (ProtoArray v5.0), streptavidin-Alexa Fluor 647
Conditions in all cases: 3'-biotin; 20 mM Tris (pH 7.5), 5 mM MgCl2, 100 mM KCl, 0.1% Tween-20, A/T-rich and random oligonucleotide blockers; temperature not stated; high values mean tight binding

Assay [1] relates to TAK1-like protein (human).
The subject of assay [2] is TBC1 domain family member 13 (human).
For assay [3], the system named is TBC1 domain family member 9B (human).
In the next assay the target is TBK1 (UniProt Q9UHD2).

Values joined by “and” are separate entries in the source; they are usually repeats but may differ in a detail not shown here. Equal values may be shown once. The list shows a part of the results. For some assays here: The exact form of the protein is not confirmed.

For the sequence “GGGAGGCTGAGGCAGG [G4-1 biotinylated (PQS2)]”, the binding signal in [1] is -0.334 z-score; in the assay on TANK (human) it was -0.334 z-score; in the assay with TAP2 (human), -0.327 z-score; in the assay with TARP (human), -0.275 z-score; in the assay with TAS2R43 (human), -0.252 z-score; in assay [2] it was -0.368 z-score. In addition, the binding signal in assay [3] was -0.237 z-score; with TBC1D21 (human), -0.348 z-score; in the assay on TBC1D7 (human) it was -0.342 z-score; in the assay with TBC1D9B (human) it was -0.364 z-score; in the assay on TBCB (human), -0.286 z-score; in the assay on TBCD (human), -0.348 z-score. Also, the binding signal was -0.325 z-score in the assay with TBK1; -0.357 z-score in the assay with TBL1X (human); -0.32 z-score with TBL2 (human); -0.283 z-score and -0.291 z-score in the assay with TBXAS1 (human); -0.287 z-score and -0.298 z-score with TCEB2 (human); -0.366 z-score in the assay on TCP11 (human). In addition, the binding signal in the assay on TCP11L1 (human) is -0.373 z-score; in the assay on TCTA (human) it was -0.332 z-score.
